In all, about 310,000 compounds went through this assay and about 17,000 (5.5%) were called active. This list was built around the results that the source calls inconclusive (neither active nor inactive); the mix of calls is not that of the screen. Calls come from the whole dose curve; as a rule, active = well fitted inhibition curve with a large enough effect; inconclusive = small, poorly fitted or top-dose-only effect, or effect the other way; inactive = no such curve, though single readings can be large or run the other way. Potencies beside an inconclusive call are fits to weak or partial responses and may not hold up.
target: Nuclear receptor ROR-gamma (Mus musculus) (UniProt P51450); experiment: qHTS for inhibitors of ROR gamma transcriptional activity; conditions: Drosophila S2 Gal4-RORgamma UAS-luciferase reporter, 20 h; activity change, negative = inhibition: at 53.6 µM (top of the series); note: nearly all actives have a fitted effect of over 60% in size
Summary of the method: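 ROR gamma transcriptional activity was tracked as Gal4-UAS luciferase output in stably transfected Drosophila Schneider cells, with compound added 1 hr before 700 uM copper sulfate induction and a 20 hr ambient-temperature incubation.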
% is set by controls: 0 for no effect and ±100 for the full control effect; potency is the fitted concentration of half-maximal effect.

Chains of the proteins cited; added tags and fusions are not shown. Lines headed by an entry give the natural chain unless they say otherwise; changes in a name come on top.
UniProt P51450: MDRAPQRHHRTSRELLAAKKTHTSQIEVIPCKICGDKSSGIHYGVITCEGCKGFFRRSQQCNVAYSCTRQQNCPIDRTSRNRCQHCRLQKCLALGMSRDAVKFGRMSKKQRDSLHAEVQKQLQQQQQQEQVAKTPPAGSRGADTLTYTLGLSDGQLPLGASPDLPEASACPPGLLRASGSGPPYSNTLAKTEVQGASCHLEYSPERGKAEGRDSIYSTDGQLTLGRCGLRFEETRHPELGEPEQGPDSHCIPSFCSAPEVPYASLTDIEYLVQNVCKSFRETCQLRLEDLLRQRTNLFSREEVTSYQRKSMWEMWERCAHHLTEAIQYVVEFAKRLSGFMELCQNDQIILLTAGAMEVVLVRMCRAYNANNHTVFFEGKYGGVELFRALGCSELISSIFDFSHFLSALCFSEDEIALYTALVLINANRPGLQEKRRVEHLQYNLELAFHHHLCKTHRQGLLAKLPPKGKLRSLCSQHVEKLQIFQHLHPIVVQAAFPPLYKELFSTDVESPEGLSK

SMILES	Potency	activity change, negative = inhibition
CC(C)(C)C(=O)Nc1ccc(NC(=O)c2ccco2)nc1	active: 0.199 µM	–
CCc1ccc2[nH]c(=O)c(CN(CCN(CC)CC)C(=S)NCc3ccco3)cc2c1	–	inactive: -36.5%
Cc1c(OCc2nn[nH]n2)ccc2c(-c3ccccc3)cc(=O)oc12	inconclusive: 3.98 µM [activator, full curve, poor fit]	–
COc1ccc(-c2nc3cnccn3c2Nc2ccc(C)cc2)cc1	inconclusive: 14.1 µM [activator, single point]	–
CC(C)N1C/C(=C/c2cccnc2)C(=O)/C(=C/c2cccnc2)C1	inconclusive: 35.5 µM [inhibitor, single point]	–
O=[N+]([O-])c1ccccc1S(=O)(=O)Oc1ccc(C(=S)N2CCOCC2)cc1	inconclusive: 11.2 µM [activator, single point]	–
COc1cccc(CN=c2c([N+](=O)[O-])nn(-c3ccccc3C)n2O)c1	inconclusive: 11.2 µM [activator, partial curve]	–
COc1cc(/C=N/n2c(C)nnc2C)cc(OC)c1OC	–	inactive: -11.4%
Cc1ccccc1NC(=O)CN1C(=O)COc2ccc(S(=O)(=O)N3CCCC3)cc21	–	inactive: -0.609%
COc1ccc2c(c1)O[C@@H](c1cccc(C(F)(F)F)c1)[C@H](OC(=O)Nc1ccc(OC(F)F)cc1)C2=O	inactive	–
CCSc1nc2ccccc2n1CCOc1ccccc1	inconclusive: 15.8 µM [inhibitor, single point]	–
C/C(N)=C(/C#N)C(=O)CSc1nc2ccccc2c(=O)n1-c1ccc(C)c(Cl)c1	inconclusive: 35.5 µM [inhibitor, single point]	–
O=c1c2cc(Cl)ccc2nc(-c2ccccc2)n1O	active: 6.31 µM	–
COc1ccc(N2C(=O)CC(NNc3ncc(Cl)cc3Cl)C2=O)cc1 (stereo not drawn)	inconclusive: 35.5 µM [inhibitor, single point]	–
S=c1[nH]nc(COc2ccccc2)n1/N=C/C=C/c1ccco1	–	inactive: -41.6%
O=C(NCCC1=CCCCC1)c1ccc(Cl)c(S(=O)(=O)N2CCOCC2)c1	inconclusive: 22.4 µM [activator, single point]	–
COc1ccccc1CN1CCC2(CCNCC2)CC1	–	inactive: -17%
COc1ccccc1S(=O)(=O)Cc1ccc(C(=O)NCc2ccccc2)o1	–	inactive: 4.66%
CCc1cc(C(=O)c2ccc(Br)cc2)c(NC(=O)CN(CC)CC)s1	active: 6.31 µM	–
NC(=S)Cc1nc(-c2ccc(Cl)cc2)cs1	active: 5.01 µM	–
Cc1cccc([C@@H]2[C@@H]3C(=O)N(Cc4ccccc4)C(=O)[C@@H]3[C@]3(Cc4ccc(Cl)cc4)C(=O)N(c4cccc(Br)c4)C(=O)N23)c1	–	inactive: 25%
CCc1ccc(-n2c(O)cnc2Nc2nc(C)cc(C)n2)cc1	inconclusive: 1.41 µM [inhibitor, partial curve, poor fit]	–
O=C(CNC(=O)c1ccccc1Br)N/N=C/c1cc(Br)ccc1O	active: 2.24 µM	–
CCCC(C)c1nnc(NC(=O)C2CC(=O)N(CCc3ccc(F)cc3)C2)s1 (stereo not drawn)	inconclusive: 28.2 µM [activator, single point]	–
O=C(NCCOc1ccc2ccccc2c1)c1cncc(Br)c1	–	inactive: 0.424%

Sorted by molecular weight (rising): some entries from above
SMILES	Potency	activity change, negative = inhibition
CCCC(C)c1nnc(NC(=O)C2CC(=O)N(CCc3ccc(F)cc3)C2)s1 (stereo not drawn)	inconclusive: 28.2 µM [activator, single point]	–
O=[N+]([O-])c1ccccc1S(=O)(=O)Oc1ccc(C(=S)N2CCOCC2)cc1	inconclusive: 11.2 µM [activator, single point]	–
C/C(N)=C(/C#N)C(=O)CSc1nc2ccccc2c(=O)n1-c1ccc(C)c(Cl)c1	inconclusive: 35.5 µM [inhibitor, single point]	–
Cc1ccccc1NC(=O)CN1C(=O)COc2ccc(S(=O)(=O)N3CCCC3)cc21	–	inactive: -0.609%
COc1ccc2c(c1)O[C@@H](c1cccc(C(F)(F)F)c1)[C@H](OC(=O)Nc1ccc(OC(F)F)cc1)C2=O	inactive	–

(further entries)

SMILES	Potency	activity change, negative = inhibition
Cc1nnc(NC(=O)CSc2nnc(-c3ccco3)o2)s1	active: 1.58 µM	–
Oc1cccc(/C=N/N=C/c2cccc(O)c2O)c1O	inconclusive: 35.5 µM [inhibitor, single point]	–
CCN(CCn1cccn1)C(=O)c1ccc(OC2CCN(C(=O)COC)CC2)cc1	–	inactive: 0.975%
Cc1ccc(NC(=O)c2oc3ccc(S(=O)(=O)N4CCOCC4)cc3c2C)cc1C	–	inactive: -35.2%
COc1ccc(/C=C/C2=CC3(C)CC2(C)C(c2ccc(OC)cc2)CC3=O)cc1 (stereo not drawn)	–	inactive: -1.04% [at 10 µM]
COc1ccccc1N=NC1C(=O)N(C(N)=S)N=C1C (stereo not drawn)	inconclusive: 1.26 µM [inhibitor, single point]	–
CCOc1cc(C2NC(=O)NC(C)=C2C(=O)OCC2CCCCC2)ccc1O (stereo not drawn)	inconclusive: 5.01 µM [activator, full curve]	–
S=C(Nc1ccccc1)N1N=C(c2cccs2)CC1c1cccs1 (stereo not drawn)	inconclusive: 12.6 µM [inhibitor, single point]	–
Cc1cc(C)cc(NC(=O)CSc2ccc(-c3ccco3)nn2)c1	inconclusive: 35.5 µM [activator, single point]	–
COc1ccc(N/C(=C/[N+](=O)[O-])SC)cc1	–	inactive: -3.62%
Cc1nc2sccn2c(=O)c1S(=O)(=O)N1CCN(c2ccccc2)CC1	–	inactive: 12.9%
Nc1c(C(=O)Nc2cccc(F)c2)nnn1-c1cccc(C(F)(F)F)c1	inconclusive: 0.891 µM [activator, full curve]	–
Cc1nnc(-c2cnn(C)c2N)n1Cc1ccc2c(c1)OCO2	–	inactive: 29.7%
Cc1oc(C(=O)O)cc1COc1ccc2c(C)cc(=O)oc2c1	–	inactive: 0.634%
O=C(O)c1ccc(CSc2nnc(-c3cccnc3)n2-c2ccc(Br)cc2)cc1	–	inactive: -21.8%
COc1ccc(/C=N/OCC(=O)NC(c2ccccc2)c2ccccc2)cc1OC	inconclusive: 5.62 µM [inhibitor, partial curve]	–
Cc1cc(/C=C2\C(=N)N3N=C(c4ccco4)SC3=NC2=O)c(C)n1Cc1ccccc1	–	inactive: -43.9%
CCNc1nc(NCC)n2c(SC(C)C(=O)c3ccc(C)cc3)nnc2n1 (stereo not drawn)	inconclusive: 20 µM [inhibitor, single point]	–
CCC1(C)Cc2c(sc3nnn(Cc4ccccc4Cl)c(=O)c23)CO1 (stereo not drawn)	inconclusive: 2.24 µM [activator, partial curve]	–
CCC(=O)N1CCN(c2ccc(NC(=O)c3cc4ccccc4o3)cc2)CC1	inconclusive: 8.91 µM [activator, partial curve]	–
O=C(N/N=C/c1ccc2c(c1)OCO2)c1ccc(Br)o1	inconclusive: 35.5 µM [inhibitor, single point]	–
N#Cc1ccc(/C=C2\CCn3c2nc2cc(C(=O)O)ccc2c3=O)cc1	–	inactive: 38.3%
COC(=O)c1sccc1S(=O)(=O)Nc1ccc(N2CCCCC2)cc1	inconclusive: 11.2 µM [activator, partial curve]	–
CCNC(=S)NNc1nncc2ccccc12	active: 0.501 µM	–
COC1=C/C(=C/c2c(N)n3cc(C)sc3nc2=O)C=CC1=O	inconclusive: 35.5 µM [inhibitor, single point]	–

SMILES	Potency	activity change, negative = inhibition
N#Cc1ccc(N2C(=O)[C@@H]3C(C(=O)c4ccc5ccccc5n4)=NN[C@@H]3C2=O)cc1	–	inactive: 0.894%
O=C(CCC(=O)N/N=C/c1cc(Cl)cc(Cl)c1O)NCc1ccccc1	inconclusive: 2.51 µM [inhibitor, full curve, poor fit]	–
COc1ccc(C(CC(=O)NCc2ccco2)c2ccc(F)cc2)cc1 (stereo not drawn)	inconclusive: 15.8 µM [activator, single point]	–
Cc1cc(C)nc(SCc2nnc(SCc3ccc([N+](=O)[O-])cc3)n2Cc2ccco2)n1	inconclusive: 14.1 µM [activator, single point]	–
COc1ccc(/C=N/Nc2ncnc3sc4c(c23)CCCC4)cc1O	inconclusive: 35.5 µM [inhibitor, single point]	–
Cc1ccccc1OCCCCN1CCCCC1	–	inactive: -25.6%
O=C(Nc1ccc(Br)cc1)c1cccn1-c1ncc(C(F)(F)F)cc1Cl	inconclusive: 31.6 µM [activator, single point]	–
Cc1ccc(N(CC(=O)NC2CCCCC2)C(=O)CNC(=O)c2ccco2)cc1C	–	inactive: 11.2%
O=C(/C=C/c1ccc2c(c1)OCO2)c1cccnc1	inconclusive: 15.8 µM [inhibitor, single point]	–
NC(=O)c1ccc(NC(=O)c2cccc3c2OCCCO3)cc1	–	inactive: 9.28%
Cc1ccc(-c2n[nH]c(=O)c3ccccc23)cc1S(=O)(=O)Nc1ccc(F)cc1	inconclusive: 20 µM [activator, single point]	–
Cn1c(SCC(=O)c2cc(Cl)c(Cl)s2)nnc1-c1ccco1	inconclusive: 7.94 µM [activator, partial curve]	–
CC[C@@]1(O)C(=O)OCc2c1cc1n(c2=O)Cc2cc3c([N+](=O)[O-])cccc3nc2-1	inconclusive: 0.0891 µM [inhibitor, full curve]	–
CCCCc1nnc(NC(=O)CSCc2cc(=O)n3cc(C)sc3n2)s1	inconclusive: 4.47 µM [inhibitor, full curve]	–
N#C/C(=C(/O)c1ccc([N+](=O)[O-])cc1)c1nnc2n1CCCCC2	active: 17.8 µM	–
CC[C@@H]1C(c2cccc(C)c2)=NN(c2ccc(Br)cc2)[C@H]1C(=O)N1CCOC1=O	–	inactive: 3.63%
Cc1ccccc1NC(=S)NC(=O)c1cncc(Br)c1	inconclusive: 35.5 µM [inhibitor, single point]	–
O=C(/C=C/Sc1ccccc1)c1ccc(Cl)cc1	inconclusive: 14.1 µM [inhibitor, single point]	–
C#CCN1C(=O)S/C(=C/C=C/c2ccc(N(C)C)cc2)C1=O	inconclusive: 3.16 µM [activator, single point]	–
CCOC(=O)NCc1ccc(S(=O)(=O)Nc2ccc(C)cc2)cc1	inconclusive: 35.5 µM [activator, single point]	–
O=[N+]([O-])c1ccc(/C=C2\CCC(C3=CCCC3)=C2N2CCOCC2)cc1	inconclusive: 35.5 µM [inhibitor, partial curve, poor fit]	–
CCN(CC(=O)Nc1sc2c(c1C#N)CCCC2)Cc1nc2ccccc2c(=O)[nH]1	active: 5.62 µM	–
Cc1ccnc(NC(=O)CCC(=O)N(CC(=O)NCc2ccccc2)c2ccc3c(c2)OCO3)c1	inconclusive: 15.8 µM [activator, single point]	–

From PubChem BioAssay AID2551 (National Center for Advancing Translational Sciences (NCATS), 2010)
